The results in this text go back to PubChem BioAssay (NCATS).

The other results are listed elsewhere or left out. These are further read-outs of the screen, such as a control signal, another cell line or another target. No call is given for them. Compounds called inactive in the main read-out are mostly missing here. Words in brackets tell the shape of the fitted curve; partial curves, single points and poor fits give uncertain potencies.

A short description of the experiment: NCATS anti-infectives library activity on the primary C. elegans qHTS viability assay (AID 1745855). Conditions: C. elegans worm area imaging, day 7; measured here: worm area, day 3. A digest of the protocol:
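GFP read-out by 488 nm laser cytometry at day 0, 3 and 7, gated on object perimeter, area and peak intensity, scored viability of PE254-GFP-FLuc worms exposed to compound in S medium with bacterial capsules at 21 °C.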
In general terms: In qHTS, concentration-response curves come from the screen itself.
For orientation: AC50 means the midpoint of the concentration-response curve, whichever way the signal moves. A high value points to weaker potency. As to `COc1ccc2c(c1)[C@@H]1C[C@]1(C(=O)N1[C@@H]3CC[C@H]1CN(C)C3)Cn1c-2c(C2CCCCC2)c2ccc(C(=O)NS(=O)(=O)N(C)C)cc21`, the AC50 was 25.8 µM [falling, partial curve, poor fit].

Turning to `CCCN1CCC=C(c2cc(-c3ccc(C)cc3)no2)C1`, the AC50 is 8.16 µM [falling, partial curve, poor fit].

Take `Cc1ccc(CCCO)c(NCc2ccc3nc(NCCCN4CCOCC4)n(Cc4nc(C)ccc4O)c3c2)c1`: the AC50 is 12.9 µM [rising, partial curve, poor fit].

Turning to `CCCCCCOc1ccccc1C(N)=O`, the AC50 was 2.05 µM [falling, partial curve, poor fit].

For `NS(=O)(=O)c1ccc(NC(=O)Nc2ccc(F)cc2)cc1`, the AC50 was 14.5 µM [falling, partial curve, poor fit].

For `O=C1CCc2c(ccc3ccccc23)O1`, the AC50 was 23 µM [falling, partial curve, poor fit].

For `Cc1cccc(/C=N/Nc2cc(N3CCOCC3)nc(OCCc3ccccn3)n2)c1`, the AC50 is 14.5 µM [falling, single point].

`O=C(NCc1ccco1)c1ccc2c(c1)N(Cc1c(F)cccc1Cl)C(=O)CS2`: the AC50 is 25.8 µM [falling, single point].

As to `O=C(O)c1ccccc1O`, the AC50 was 36.5 µM [rising, single point].

Take `CCN(CC)C(=S)S`: the AC50 was 0.0325 µM [falling, full curve, poor fit].

For the compound `CC(C)C[C@H](NC(=O)CNC(=O)c1cc(Cl)ccc1Cl)B1OC(=O)C(CC(=O)O)(CC(=O)O)O1`, the AC50 is 0.728 µM [falling, full curve].
